The structures given here were assigned with low confidence; some may be wrong.
Biological target: renin (Homo sapiens, UniProt P00797)
Test: Inhibition of human plasma renin activity (angiotensin I formation, RIA)
Details: pooled human plasma, endogenous renin and angiotensinogen, pH 6.0, 37° C., 90 minutes incubation, Ang I measured by RIA; Probit method; tested form: 2HCl
Protocol: Human plasma was collected from male volunteers pretreated with no drugs and used as a pool. Disodium salt of ethylenediaminetetraacetic acid (EDTA) was used as the anticoagulant. Plasma renin activity was measured as the rate of angiotensin I (Ang I) formation after incubation (37° C.) of the endogenous renin and angiotensinogen in plasma at pH 6.0. The incubation mixture contained 250 μl of plasma, 5 μl of (phenylmethyl)sulfonyl fluoride, 30 μl of buffer (sodium, potassium-phosphate, pH 6.0), and 15 μl of an appropriate concentration of test compound in 50% ethyl alcohol-water vehicle. The Ang I formed after 90 minutes of incubation was measured by radioimmunoassay (RIA) which was carried out with a commercial kit, RENIN.RIABEAD (Trademark: manufactured by Dainabot Co., Ltd.). Samples were incubated in duplicate and each tube was measured in duplicate in the RIA. Percentage inhibition of plasma renin activity was calculated by comparing the amount of Ang I produced with and without a test compound. The concentration of test compound that inhibited plasma renin activity by 50% (IC50) was determined by Probit method.

By UniProt entry, the sequences of proteins in these tests, tags left out. Residues count along the entry.
UniProt P00797, 67-406 limits assumed: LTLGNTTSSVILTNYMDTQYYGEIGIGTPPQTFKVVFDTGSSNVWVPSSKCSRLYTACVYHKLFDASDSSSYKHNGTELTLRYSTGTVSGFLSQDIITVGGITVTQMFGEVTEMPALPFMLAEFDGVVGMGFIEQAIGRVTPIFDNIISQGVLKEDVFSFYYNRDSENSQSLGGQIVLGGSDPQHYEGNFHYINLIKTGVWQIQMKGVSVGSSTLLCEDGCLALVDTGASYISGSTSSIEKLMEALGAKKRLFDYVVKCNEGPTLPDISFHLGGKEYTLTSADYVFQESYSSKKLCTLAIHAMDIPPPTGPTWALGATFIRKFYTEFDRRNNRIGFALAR

**Q.** With CC(C)CC[C@H](O)[C@H](CC1CCCCC1)NC(=O)[C@H](Cc1c[nH]cn1)N(C)C(=O)[C@H](Cc1ccccc1)NC(=O)N(C)CCc1ccccn1 as the compound, how does the IC50 read?
**A.** 9.6 nM

— US5491132A
